Experimental data from PMC9981736.
No constants are given. Whether binding was seen depends on the method and setting. Blank lines part the entries; values can stand above or below the binder they belong to.

What was measured:
[1] = biological target: Rec domain of CckA (CckA^Rec, residues 568-691) (Caulobacter crescentus) (UniProt Q9X688); assay: SEC-MALS; Superdex 200 10/300 Increase; loading concentrations 13.8, 6.9 and 3.5 mg/ml; 25 C; sample buffer; both purified
[2] = biological target: Rec domain of CckA (CckA^Rec, residues 568-691) (Caulobacter crescentus) (UniProt Q9X688); assay: crystal structure; X-ray, 1.25 Å, one molecule per asymmetric unit; 0.15 M KSCN, 0.1 M Na cacodylate pH 6.5, 20% v/v PEG 600, room temperature; both purified
[3] = biological target: BeF3^- bound (activated) CckA^Rec (Caulobacter crescentus) (UniProt Q9X688); assay: NMR line widths (2D [15N,1H]-HSQC); 0.8 mM protein, 30 mM MES pH 6.8, 100 mM NaCl, 5 mM MgCl2, 25 C, 700 MHz; with and without bound BeF3^-; both purified

binding [1]: no binding (tested: around 1 mM)
binding [2]: no binding
B1: Rec domain of CckA (CckA^Rec, residues 568-691) (domain or fragment, UniProt Q9X688 568-691)
chain: SGAGRILFVEDEDAVRSVAARLLRARGYEVLEAADGEEALIIAEENAGTIDLLISDVIMPGIDGPTLLKKARGYLGTAPVMFISGYAEAEFSDLLEGETGVTFLPKPIDIKTLAERVKQQLQAA

binding [3]: no binding (tested: 0.8 mM)
B2: BeF3^- bound (activated) CckA^Rec (domain or fragment, UniProt Q9X688 568-691)
chain: B1 chain
modifications: bound BeF3^- (beryllofluoride, phosphoryl-mimic); [U-15N,13C]-labeled
